Some of the results follow. The data scatter; read single values as rough.

The chains behind the UniProt entries cited, without tags or fusion partners. Where a name states a change or a piece, a line headed by the entry shows the natural chain unless it says otherwise. Residues count along the entry.
UniProt Q6NXT1, 114-144: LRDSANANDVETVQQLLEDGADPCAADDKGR
UniProt Q92625: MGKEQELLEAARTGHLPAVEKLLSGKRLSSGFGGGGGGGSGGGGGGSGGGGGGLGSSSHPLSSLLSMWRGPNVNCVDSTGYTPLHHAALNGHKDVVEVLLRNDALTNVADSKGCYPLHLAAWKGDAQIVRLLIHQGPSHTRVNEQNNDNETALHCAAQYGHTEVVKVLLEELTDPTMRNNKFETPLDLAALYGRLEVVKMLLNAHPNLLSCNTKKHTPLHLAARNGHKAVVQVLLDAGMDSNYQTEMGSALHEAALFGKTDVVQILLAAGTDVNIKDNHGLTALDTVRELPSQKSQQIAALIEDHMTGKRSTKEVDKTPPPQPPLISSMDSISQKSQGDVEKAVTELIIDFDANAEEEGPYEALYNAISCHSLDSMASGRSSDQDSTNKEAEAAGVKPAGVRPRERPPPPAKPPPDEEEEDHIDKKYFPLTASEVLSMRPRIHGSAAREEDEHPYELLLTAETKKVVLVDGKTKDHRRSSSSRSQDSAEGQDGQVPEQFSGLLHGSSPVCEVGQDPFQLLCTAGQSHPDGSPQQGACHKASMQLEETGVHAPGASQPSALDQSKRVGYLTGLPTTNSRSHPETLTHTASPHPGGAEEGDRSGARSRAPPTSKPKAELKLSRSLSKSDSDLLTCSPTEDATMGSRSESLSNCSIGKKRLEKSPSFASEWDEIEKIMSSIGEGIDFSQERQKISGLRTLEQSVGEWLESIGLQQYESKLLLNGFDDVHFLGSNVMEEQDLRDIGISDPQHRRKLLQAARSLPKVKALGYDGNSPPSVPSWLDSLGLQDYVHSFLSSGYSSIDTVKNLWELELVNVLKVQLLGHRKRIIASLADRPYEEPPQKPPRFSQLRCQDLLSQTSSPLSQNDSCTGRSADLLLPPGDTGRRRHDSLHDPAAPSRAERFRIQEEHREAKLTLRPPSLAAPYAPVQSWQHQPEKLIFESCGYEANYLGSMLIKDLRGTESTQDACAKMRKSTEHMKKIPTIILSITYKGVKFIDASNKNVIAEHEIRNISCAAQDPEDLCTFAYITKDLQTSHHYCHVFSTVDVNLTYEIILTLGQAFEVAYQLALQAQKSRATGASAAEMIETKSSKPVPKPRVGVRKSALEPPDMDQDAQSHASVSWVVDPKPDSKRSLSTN
UniProt Q86XL3, 674-698: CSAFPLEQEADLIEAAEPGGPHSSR
UniProt O00203: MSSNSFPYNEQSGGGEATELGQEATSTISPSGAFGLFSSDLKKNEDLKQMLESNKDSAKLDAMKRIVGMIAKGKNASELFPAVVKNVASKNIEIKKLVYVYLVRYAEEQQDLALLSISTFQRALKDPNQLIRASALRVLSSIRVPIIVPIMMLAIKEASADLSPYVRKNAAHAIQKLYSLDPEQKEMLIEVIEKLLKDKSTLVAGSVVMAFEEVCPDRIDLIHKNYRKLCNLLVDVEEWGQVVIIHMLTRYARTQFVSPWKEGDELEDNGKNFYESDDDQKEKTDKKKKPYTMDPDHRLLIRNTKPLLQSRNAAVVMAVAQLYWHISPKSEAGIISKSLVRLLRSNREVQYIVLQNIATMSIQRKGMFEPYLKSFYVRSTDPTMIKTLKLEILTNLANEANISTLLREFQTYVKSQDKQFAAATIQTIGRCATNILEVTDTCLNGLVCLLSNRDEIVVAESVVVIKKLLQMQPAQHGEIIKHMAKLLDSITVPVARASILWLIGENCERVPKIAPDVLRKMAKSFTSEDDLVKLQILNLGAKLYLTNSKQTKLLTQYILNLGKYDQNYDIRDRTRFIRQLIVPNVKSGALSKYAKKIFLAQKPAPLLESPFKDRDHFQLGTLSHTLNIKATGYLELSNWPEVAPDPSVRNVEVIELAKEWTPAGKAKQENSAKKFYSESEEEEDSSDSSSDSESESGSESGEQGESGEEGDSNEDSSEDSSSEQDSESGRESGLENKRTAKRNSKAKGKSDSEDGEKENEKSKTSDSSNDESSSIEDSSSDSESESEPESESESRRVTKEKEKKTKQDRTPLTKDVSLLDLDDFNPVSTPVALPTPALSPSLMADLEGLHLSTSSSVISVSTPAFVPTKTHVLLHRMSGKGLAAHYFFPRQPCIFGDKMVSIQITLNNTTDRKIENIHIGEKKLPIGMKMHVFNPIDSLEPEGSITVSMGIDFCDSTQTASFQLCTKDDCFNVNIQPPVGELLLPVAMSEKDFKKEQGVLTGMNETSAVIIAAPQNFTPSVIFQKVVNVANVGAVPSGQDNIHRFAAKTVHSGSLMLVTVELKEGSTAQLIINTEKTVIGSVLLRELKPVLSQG
UniProt Q9H0F7: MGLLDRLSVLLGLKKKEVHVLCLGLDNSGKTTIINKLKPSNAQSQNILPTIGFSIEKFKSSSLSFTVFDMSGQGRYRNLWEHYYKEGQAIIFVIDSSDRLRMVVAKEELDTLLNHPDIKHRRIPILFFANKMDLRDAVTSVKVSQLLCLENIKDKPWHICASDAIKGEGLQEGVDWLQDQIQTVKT
UniProt Q9NQW6: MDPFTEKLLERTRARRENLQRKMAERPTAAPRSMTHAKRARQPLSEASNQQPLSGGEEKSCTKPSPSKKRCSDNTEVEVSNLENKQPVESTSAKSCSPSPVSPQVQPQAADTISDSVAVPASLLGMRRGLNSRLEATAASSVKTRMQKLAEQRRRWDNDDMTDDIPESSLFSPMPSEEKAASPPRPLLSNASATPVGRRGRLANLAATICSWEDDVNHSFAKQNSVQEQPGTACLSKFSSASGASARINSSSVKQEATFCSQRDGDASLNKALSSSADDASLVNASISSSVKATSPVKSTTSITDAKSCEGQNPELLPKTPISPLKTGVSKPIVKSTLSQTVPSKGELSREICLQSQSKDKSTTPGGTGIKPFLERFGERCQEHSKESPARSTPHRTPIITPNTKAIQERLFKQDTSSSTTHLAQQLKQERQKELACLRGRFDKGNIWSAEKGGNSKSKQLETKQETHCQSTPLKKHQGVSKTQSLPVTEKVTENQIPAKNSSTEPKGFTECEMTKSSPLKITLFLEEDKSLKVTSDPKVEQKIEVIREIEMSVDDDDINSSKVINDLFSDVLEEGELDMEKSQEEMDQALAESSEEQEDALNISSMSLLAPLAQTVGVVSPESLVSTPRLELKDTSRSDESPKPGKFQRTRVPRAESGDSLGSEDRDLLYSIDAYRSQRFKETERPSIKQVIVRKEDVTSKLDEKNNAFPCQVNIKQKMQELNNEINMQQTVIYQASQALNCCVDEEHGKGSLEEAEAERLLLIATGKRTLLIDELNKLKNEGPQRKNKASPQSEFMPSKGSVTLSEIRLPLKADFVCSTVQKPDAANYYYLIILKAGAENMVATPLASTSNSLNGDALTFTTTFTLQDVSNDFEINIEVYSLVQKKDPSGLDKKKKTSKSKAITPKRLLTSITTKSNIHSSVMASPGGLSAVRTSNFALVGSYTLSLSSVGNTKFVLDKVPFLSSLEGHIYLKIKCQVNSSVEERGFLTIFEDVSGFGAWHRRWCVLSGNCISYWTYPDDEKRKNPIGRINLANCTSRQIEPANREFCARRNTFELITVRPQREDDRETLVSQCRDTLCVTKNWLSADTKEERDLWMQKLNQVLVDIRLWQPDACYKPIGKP
UniProt O00189: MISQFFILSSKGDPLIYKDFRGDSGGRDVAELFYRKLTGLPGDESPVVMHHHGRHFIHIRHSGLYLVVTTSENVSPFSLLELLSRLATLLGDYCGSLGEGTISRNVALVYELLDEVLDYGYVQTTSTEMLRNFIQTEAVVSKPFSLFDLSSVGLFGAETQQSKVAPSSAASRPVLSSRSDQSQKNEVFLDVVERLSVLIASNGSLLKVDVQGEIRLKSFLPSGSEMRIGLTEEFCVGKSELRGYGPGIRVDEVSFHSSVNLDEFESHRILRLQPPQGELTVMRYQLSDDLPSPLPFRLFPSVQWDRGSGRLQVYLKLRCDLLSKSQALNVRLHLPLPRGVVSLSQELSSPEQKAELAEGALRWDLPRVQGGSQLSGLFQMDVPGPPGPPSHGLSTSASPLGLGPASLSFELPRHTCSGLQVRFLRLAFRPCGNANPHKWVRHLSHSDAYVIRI
UniProt Q8TER5, whole entry, looked up: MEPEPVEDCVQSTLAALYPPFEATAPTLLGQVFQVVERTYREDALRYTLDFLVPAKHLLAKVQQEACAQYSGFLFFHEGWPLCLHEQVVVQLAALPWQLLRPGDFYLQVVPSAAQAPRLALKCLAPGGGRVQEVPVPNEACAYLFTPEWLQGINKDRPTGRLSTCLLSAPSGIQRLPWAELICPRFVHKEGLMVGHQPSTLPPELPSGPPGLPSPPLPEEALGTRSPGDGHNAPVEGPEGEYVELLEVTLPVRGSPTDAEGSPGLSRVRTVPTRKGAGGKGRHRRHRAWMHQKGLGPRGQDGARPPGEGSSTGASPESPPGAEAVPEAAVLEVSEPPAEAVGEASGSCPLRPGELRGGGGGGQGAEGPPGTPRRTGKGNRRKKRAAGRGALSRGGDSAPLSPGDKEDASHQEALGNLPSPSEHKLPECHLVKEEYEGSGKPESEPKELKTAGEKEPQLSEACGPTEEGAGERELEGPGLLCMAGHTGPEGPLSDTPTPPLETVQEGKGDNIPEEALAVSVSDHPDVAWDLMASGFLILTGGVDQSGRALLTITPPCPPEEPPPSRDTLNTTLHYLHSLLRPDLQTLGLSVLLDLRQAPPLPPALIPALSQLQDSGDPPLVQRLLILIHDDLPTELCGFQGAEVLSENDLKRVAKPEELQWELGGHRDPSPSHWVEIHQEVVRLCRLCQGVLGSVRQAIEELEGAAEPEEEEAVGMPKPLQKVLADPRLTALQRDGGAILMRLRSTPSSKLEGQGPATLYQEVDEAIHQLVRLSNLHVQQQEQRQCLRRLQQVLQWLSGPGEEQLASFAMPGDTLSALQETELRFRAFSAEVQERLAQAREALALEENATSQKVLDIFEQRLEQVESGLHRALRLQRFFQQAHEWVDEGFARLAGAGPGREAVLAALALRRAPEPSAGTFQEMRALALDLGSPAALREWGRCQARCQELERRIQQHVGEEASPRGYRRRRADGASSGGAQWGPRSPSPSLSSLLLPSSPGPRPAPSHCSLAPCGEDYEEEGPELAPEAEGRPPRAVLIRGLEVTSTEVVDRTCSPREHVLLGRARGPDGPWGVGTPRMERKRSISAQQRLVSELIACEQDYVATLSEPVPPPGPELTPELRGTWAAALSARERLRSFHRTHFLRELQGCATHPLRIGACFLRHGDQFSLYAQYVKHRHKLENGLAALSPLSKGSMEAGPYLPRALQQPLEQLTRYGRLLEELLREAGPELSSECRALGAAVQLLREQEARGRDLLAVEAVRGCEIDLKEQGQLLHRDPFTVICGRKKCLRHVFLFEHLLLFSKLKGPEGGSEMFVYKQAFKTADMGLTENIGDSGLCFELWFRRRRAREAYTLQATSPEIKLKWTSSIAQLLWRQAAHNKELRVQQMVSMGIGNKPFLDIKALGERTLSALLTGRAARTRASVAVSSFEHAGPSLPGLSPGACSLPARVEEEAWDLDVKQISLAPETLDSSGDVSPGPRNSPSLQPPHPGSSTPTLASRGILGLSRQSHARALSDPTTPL
UniProt Q8N6T3: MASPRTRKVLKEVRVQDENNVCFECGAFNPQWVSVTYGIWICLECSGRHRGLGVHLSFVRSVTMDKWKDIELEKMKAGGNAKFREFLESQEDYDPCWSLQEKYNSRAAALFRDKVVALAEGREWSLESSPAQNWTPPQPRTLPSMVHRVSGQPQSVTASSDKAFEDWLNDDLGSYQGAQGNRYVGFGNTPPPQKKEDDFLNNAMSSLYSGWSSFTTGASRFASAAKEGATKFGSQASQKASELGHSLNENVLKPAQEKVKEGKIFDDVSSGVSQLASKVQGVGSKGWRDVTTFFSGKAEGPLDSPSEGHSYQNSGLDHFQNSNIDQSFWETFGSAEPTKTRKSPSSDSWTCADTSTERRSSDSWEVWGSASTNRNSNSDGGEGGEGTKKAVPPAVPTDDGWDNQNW
UniProt P10398: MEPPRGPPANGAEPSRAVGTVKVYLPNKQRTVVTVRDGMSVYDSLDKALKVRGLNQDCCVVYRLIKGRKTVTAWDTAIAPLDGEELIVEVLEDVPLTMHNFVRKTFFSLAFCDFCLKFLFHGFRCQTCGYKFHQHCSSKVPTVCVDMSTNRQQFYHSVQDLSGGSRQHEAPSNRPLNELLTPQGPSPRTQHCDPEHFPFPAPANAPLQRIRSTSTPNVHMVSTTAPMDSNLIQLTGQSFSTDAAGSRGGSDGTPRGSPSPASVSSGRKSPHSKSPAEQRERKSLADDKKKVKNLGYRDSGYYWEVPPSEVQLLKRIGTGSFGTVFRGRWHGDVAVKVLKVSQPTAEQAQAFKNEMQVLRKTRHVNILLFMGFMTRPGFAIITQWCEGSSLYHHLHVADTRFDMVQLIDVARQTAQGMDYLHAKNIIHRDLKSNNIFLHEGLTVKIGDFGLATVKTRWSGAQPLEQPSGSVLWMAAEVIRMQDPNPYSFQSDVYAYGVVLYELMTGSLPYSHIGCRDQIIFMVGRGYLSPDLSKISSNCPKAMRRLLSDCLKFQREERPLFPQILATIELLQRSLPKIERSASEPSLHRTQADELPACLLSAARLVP
UniProt P59780, 42-62: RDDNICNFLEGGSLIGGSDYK

Compound in the first experiment: ClCC(=O)N[C@@H]1CCCc2ccccc12
Nature of the experiment: log2 mean competition ratio of IA-DTB cysteine labelling (DMSO/compound) (log2 ratio); higher = stronger cysteine engagement by compound. Particulars: 50 µM; treatment time: 4 h; cell line lysate: HEK293T. The protocol: (§1)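 IA-DTB competitive cysteine chemoproteomics in HEK293T RIPA lysate. Lysates were treated with compound 29 or 30 at 50 or 200 µM for 4 h, then IA-DTB (500 µM, 1 h), trypsin-digested, NeutrAvidin-enriched and analysed by diaPASEF. Competition ratio = intensity DMSO / intensity compound (n=4 treated, n=64 DMSO); binding: mean log2 CR ≥ 1 and p ≤ 0.05 plus QC filters. Target is the cysteine site.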
Regarding ARL13B C146 (UniProt Q3SXY8), the “log2 mean competition ratio” value was -0.236.
Still for that read-out and setting: the value for ANXA6 C59 was -0.235; that for ANKRD17 C1746 (UniProt O75179) was 0.212; that for ANKRD54 C137 (UniProt Q6NXT1) was -0.293.
For ANKS1A C633 (UniProt Q92625), the “log2 mean competition ratio” value is -0.321.
The same measure, in the same setting: for ARL15 C53 (UniProt Q9NXU5) the value was -0.319.
On the same count and under the same terms, the value for ARMC8 C3 was -0.00222.
Same read-out and setting: the value for ARHGAP35 C924 (UniProt Q9NRY4) was 0.304; that for ANKRD50 C1328 (UniProt Q9ULJ7) was -0.342.
In the case of ARHGEF26 C850, the “log2 mean competition ratio” value was -0.182.
The same measure, in the same setting: the value for ANKLE2 C674 (UniProt Q86XL3) was 0.545; that for AP3B1 C893 (UniProt O00203) was -0.353.
The same measure, in the same setting: for ARHGEF39 C10 the value was 0.0889.
For the target AQR C595 (UniProt O60306), the “log2 mean competition ratio” value is -0.0938.
Still for that read-out and setting: the value for ARHGEF39 C5 was 0.0224; that for AS3MT C271 was 0.0713.
On the same count and under the same terms, for APAF1 C761 (UniProt O14727) the value was 0.0627; for ARL6 C22 (UniProt Q9H0F7), 0.21; for ASH1L C227, -0.0204.
As for ANLN C512 (UniProt Q9NQW6), the “log2 mean competition ratio” value was -0.089.
The same measure, in the same setting: for AP4M1 C235 (UniProt O00189) the value was -0.114; for ANKRD44 C967 (UniProt Q8N8A2), -0.305; for ARHGEF6 C418 (UniProt Q15052), -0.0718.
On the same count and under the same terms, the value for ANO6 C261 (UniProt Q4KMQ2) was -0.612.
The same measure, in the same setting: the value for APAF1 C450 (UniProt O14727) was 0.285.
For the target ARHGAP29 C1066 (UniProt Q52LW3), the “log2 mean competition ratio” value was -0.13.
The same measure, in the same setting: the value for ARHGEF40 C1148 (UniProt Q8TER5) was 0.299.
For ASCC3 C704 (UniProt Q8N3C0), the “log2 mean competition ratio” value was -0.26.
The same measure, in the same setting: the value for ARFGAP1 C351 (UniProt Q8N6T3) was -0.487; that for ARAF C549 (UniProt P10398) was 0.0292.
Same read-out and setting: for ARHGEF26 C491 the value was -0.0603; for API5 C234 (UniProt Q9BZZ5), -0.462; for ARL16 C164, -0.287.
On the same count and under the same terms, for AP3S2 C47 (UniProt P59780) the value was -0.0238.
Take ARFGEF1 C622 (UniProt Q9Y6D6): the “log2 mean competition ratio” value turned out to be 0.277.
With ANXA7 C327 (UniProt P20073), the “log2 mean competition ratio” value was 0.271.
The same measure, in the same setting: for AS3MT C32 the value was 0.0123.

The same experiment, now with this note: 200 µM; treatment time: 4 h; cell line lysate: HEK293T.
For ARL13B C146 (UniProt Q3SXY8), the “log2 mean competition ratio” value was 0.549.
The same measure, in the same setting: for ANXA6 C59 the value was -0.0496; for ANKRD17 C1746 (UniProt O75179), -0.141; for ANKRD54 C137 (UniProt Q6NXT1), -0.105.
On the same count and under the same terms, the value for ANKS1A C633 (UniProt Q92625) was -0.00994; that for ARL15 C53 (UniProt Q9NXU5) was 0.186; that for ARMC8 C3 was -0.391.
On the same count and under the same terms, the value for ARHGAP35 C924 (UniProt Q9NRY4) was -0.267; that for ANKRD50 C1328 (UniProt Q9ULJ7) was 0.418.
In the case of ARHGEF26 C850, the “log2 mean competition ratio” value was -0.147.
For the target ANKLE2 C674 (UniProt Q86XL3), the “log2 mean competition ratio” value is -0.215.
Still for that read-out and setting: the value for AP3B1 C893 (UniProt O00203) was -0.11; that for ARHGEF39 C10 was 0.611; that for AQR C595 (UniProt O60306) was 0.0365.
Same read-out and setting: the value for ARHGEF39 C5 was -0.0717; that for AS3MT C271 was 0.00943; that for APAF1 C761 (UniProt O14727) was -0.0557.
On the same count and under the same terms, the value for ARL6 C22 (UniProt Q9H0F7) was 0.00514.
Consider ASH1L C227, for which the “log2 mean competition ratio” value turned out to be 0.227.
Same read-out and setting: for ANLN C512 (UniProt Q9NQW6) the value was -0.0696; for AP4M1 C235 (UniProt O00189), 0.0724; for ANKRD44 C967 (UniProt Q8N8A2), -0.193.
The same measure, in the same setting: the value for ARHGEF6 C418 (UniProt Q15052) was -0.0239; that for ANO6 C261 (UniProt Q4KMQ2) was 0.753.
The same measure, in the same setting: for APAF1 C450 (UniProt O14727) the value was -0.165.
As to ARHGAP29 C1066 (UniProt Q52LW3), the “log2 mean competition ratio” value came out at 0.274.
The same measure, in the same setting: the value for ARHGEF40 C1148 (UniProt Q8TER5) was 0.00774; that for ASCC3 C704 (UniProt Q8N3C0) was -0.0667; that for ARFGAP1 C351 (UniProt Q8N6T3) was 0.211.
As to ARAF C549 (UniProt P10398), the “log2 mean competition ratio” value came to 0.122.
As for ARHGEF26 C491, the “log2 mean competition ratio” value is -0.00828.
On the same count and under the same terms, the value for API5 C234 (UniProt Q9BZZ5) was 0.509; that for ARL16 C164 was 0.102.
The same measure, in the same setting: for AP3S2 C47 (UniProt P59780) the value was -0.344.
The same measure, in the same setting: the value for ARFGEF1 C622 (UniProt Q9Y6D6) was -0.067.
As to ANXA7 C327 (UniProt P20073), the “log2 mean competition ratio” value is -0.31.
Same read-out and setting: the value for AS3MT C32 was 0.0707.

Compound in the next experiment: ClCC(=O)N[C@H]1CCCc2ccccc12
Described as above. Particulars: 50 µM; treatment time: 4 h; cell line lysate: HEK293T. On the procedure:
as §1
Turning to ARL13B C146 (UniProt Q3SXY8), the “log2 mean competition ratio” value is -0.0342.
Same read-out and setting: the value for ANXA6 C59 was 0.155.
ANKRD17 C1746 (UniProt O75179): the “log2 mean competition ratio” value was 0.451.
Same read-out and setting: the value for ANKRD54 C137 (UniProt Q6NXT1) was -0.402; that for ANKS1A C633 (UniProt Q92625) was -0.0603.
Regarding ARL15 C53 (UniProt Q9NXU5), the “log2 mean competition ratio” value was found to be 0.19.
As to ARMC8 C3, the “log2 mean competition ratio” value is 0.122.
The same measure, in the same setting: for ARHGAP35 C924 (UniProt Q9NRY4) the value was 0.181.
On the same count and under the same terms, for ANKRD50 C1328 (UniProt Q9ULJ7) the value was -0.0255.
The same measure, in the same setting: the value for ARHGEF26 C850 was 0.0641; that for ANKLE2 C674 (UniProt Q86XL3) was 0.419.
For AP3B1 C893 (UniProt O00203), the “log2 mean competition ratio” value was -0.315.
The same measure, in the same setting: for ARHGEF39 C10 the value was 0.147; for AQR C595 (UniProt O60306), -0.348; for ARHGEF39 C5, -0.319.
Same read-out and setting: for AS3MT C271 the value was -0.0406; for APAF1 C761 (UniProt O14727), -0.427.
Regarding ARL6 C22 (UniProt Q9H0F7), the “log2 mean competition ratio” value is -0.173.
The same measure, in the same setting: the value for ASH1L C227 was -0.00373.
Same read-out and setting: the value for ANLN C512 (UniProt Q9NQW6) was 0.064.
Take AP4M1 C235 (UniProt O00189): the “log2 mean competition ratio” value was -0.623.
On the same count and under the same terms, the value for ANKRD44 C967 (UniProt Q8N8A2) was -0.166; that for ARHGEF6 C418 (UniProt Q15052) was -0.197.
Still for that read-out and setting: the value for ANO6 C261 (UniProt Q4KMQ2) was -0.552.
The same measure, in the same setting: for APAF1 C450 (UniProt O14727) the value was -0.0771; for ARHGAP29 C1066 (UniProt Q52LW3), 0.183; for ARHGEF40 C1148 (UniProt Q8TER5), 0.139.
On to ASCC3 C704 (UniProt Q8N3C0), for which the “log2 mean competition ratio” value is 0.139.
On the same count and under the same terms, for ARFGAP1 C351 (UniProt Q8N6T3) the value was -0.314; for ARAF C549 (UniProt P10398), -0.0315; for ARHGEF26 C491, -0.347.
Same read-out and setting: for API5 C234 (UniProt Q9BZZ5) the value was 0.0146; for ARL16 C164, -0.315; for AP3S2 C47 (UniProt P59780), -0.335.
For the target ARFGEF1 C622 (UniProt Q9Y6D6), the “log2 mean competition ratio” value was found to be 0.177.
In the case of ANXA7 C327 (UniProt P20073), the “log2 mean competition ratio” value was -0.172.
On to AS3MT C32, for which the “log2 mean competition ratio” value was determined as 0.00182.
